Some entries share one result that the patent states for a list of compounds.
Test system: herpes simplex (HSV), adenovirus, influenza B, RS virus, cytomegalovirus and CBV5 virus
Test: Human virus models, statement for all viruses
Type: cell-based
Details: 1 μM

Structure (SMILES) | infection observed
COC(=O)CC1Cc2cc3cccc(O)c3c3c2C(=C/C(=C/C(C)=O)O3)O1 (centres unmarked) [S2502] | Below 10%
CC(=O)/C=C1/C=C2OC(CC(=O)O)Cc3cc4cccc(O)c4c(c32)O1 (centres unmarked) [S2507] | Below 10%
